Toxoplasma: 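Assay of Toxoplasma gondii numbers, read through their beta-galactosidase reporter with a colour substrate. Concentration: 10 µM. Higher reads as fewer parasites (inferred from which compounds were picked for retests). Of about 67,000 compounds tested this way, about 260 (0.38%) reached 50% or more in at least one test.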
ClpP1P2: 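ClpP1P2, Mycobacterium tuberculosis (UniProt P9WPC5 and UniProt P9WPC3). Protease assay of ClpP1P2, read by the AMC dye that it sets free. Concentration: 50 µM. Higher reads as stronger inhibition, judged from the few compounds that gave an IC50. Most other retested compounds had strongly negative values. About 69,000 compounds were tested under these conditions; 0.015% (about 10) showed 50% or more at least once.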
Leishmania in macrophages: 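Cell assay of Leishmania donovani living inside macrophages; the read-out is not stated. Compounds at 30 µM. Direction is inferred from retests: higher values go with stronger inhibition. About 69,000 compounds were tested under these conditions; 1.5% (about 1,000) showed 50% or more at least once.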
T. brucei: 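Whole-parasite assay of Trypanosoma brucei over 72 hours; the read-out is not stated. Concentration: 30 µM. Direction is inferred from retests: higher values go with stronger inhibition. Values scatter widely below zero; nearly all retest evidence comes from the higher of the two concentrations used. About 64,000 compounds were tested under these conditions; 1.5% (about 940) showed 50% or more at least once.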

The chains behind the UniProt entries cited, without tags or fusion partners.
UniProt P9WPC5, whole entry: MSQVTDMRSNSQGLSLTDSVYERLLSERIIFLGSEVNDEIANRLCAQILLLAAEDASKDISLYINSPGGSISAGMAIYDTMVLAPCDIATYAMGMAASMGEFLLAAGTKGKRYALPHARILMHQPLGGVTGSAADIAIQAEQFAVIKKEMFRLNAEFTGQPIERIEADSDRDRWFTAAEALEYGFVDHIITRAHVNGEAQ
UniProt P9WPC3, whole entry partner: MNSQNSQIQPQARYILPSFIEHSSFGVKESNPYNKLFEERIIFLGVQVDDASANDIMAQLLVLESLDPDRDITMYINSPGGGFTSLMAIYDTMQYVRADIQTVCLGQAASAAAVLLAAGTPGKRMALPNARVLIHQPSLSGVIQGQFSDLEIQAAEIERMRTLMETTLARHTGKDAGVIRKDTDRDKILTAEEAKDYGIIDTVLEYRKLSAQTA

Values are the deposited “Percent Effect”, in %. The record does not define 0% and 100%; most values in the screen are far below 50% and negative numbers occur (in some assays of this library far below -100). This is an unselected part of the compounds tested. A dash means the value is not listed here; it may have been measured.

{"structure": "CN1CCOC[C@H]1c1nc(-c2ccc(F)cc2F)c[nH]1", "Toxoplasma": -12.79, "ClpP1P2": -3.671, "Leishmania in macrophages": -9.392, "T. brucei": -28.5}
{"structure": "CCn1cc(C(=O)Nc2cc(C(=O)OC)ccc2C(=O)OC)cn1", "Toxoplasma": -5.573, "ClpP1P2": -14.81, "Leishmania in macrophages": 23.58, "T. brucei": -20.2}
{"structure": "Cc1nccn1-c1cc(CNC(=O)C(C)(C)C)ccn1", "Toxoplasma": 0.5473, "ClpP1P2": 4.429, "Leishmania in macrophages": 13.93, "T. brucei": -51.28}
{"structure": "O=C(O)C(F)(F)F.[H][C@@]12COC[C@]1(CN(C)C)CN(C(=O)c1ccc(F)cc1C)C2", "Toxoplasma": -0.9043, "Leishmania in macrophages": 7.298, "T. brucei": -53.92}
{"structure": "Cc1nn(C2CCCC2)c2c1C(c1ccc3c(c1)OCO3)SCC(=O)N2", "stereo": "stereo unspecified", "Toxoplasma": 2.185, "ClpP1P2": -12.95, "Leishmania in macrophages": 2.77, "T. brucei": -39.19}
{"structure": "Cc1nccc(NCc2cc3n(n2)CCCN(C(=O)C2CCC2)C3)n1", "Toxoplasma": 9.727, "ClpP1P2": 12.67, "Leishmania in macrophages": 2.245, "T. brucei": -21.77}
{"structure": "CC(C)OCCCN1CCCC(c2nc3ccccc3n2C(C)C)C1", "stereo": "stereo unspecified", "Toxoplasma": -5.64, "ClpP1P2": 8.301, "Leishmania in macrophages": 51.41, "T. brucei": 14.17}
{"structure": "CN(CC(=O)N1CCCC1)C(=O)c1cccn1CCc1ccccc1", "Toxoplasma": -18.71, "ClpP1P2": 6.86, "Leishmania in macrophages": 3.945, "T. brucei": -54.79}
{"structure": "COCC1CC2(CCN(CC3CC3)CC2)CN1Cc1ccccn1.O=C(O)C(F)(F)F.O=C(O)C(F)(F)F", "stereo": "stereo unspecified", "Toxoplasma": -0.06947, "Leishmania in macrophages": 40.82, "T. brucei": -87.37}
{"structure": "CN(C(=O)c1ccccc1NCC(=O)O)C(C1CC1)C1CC1", "Toxoplasma": -17.38, "ClpP1P2": -23.26, "Leishmania in macrophages": 3.485, "T. brucei": -13.67}
{"structure": "CN1C(=O)CC2(CCN(S(=O)(=O)N(C)C)CC2)c2ccccc21", "Toxoplasma": -0.9169, "ClpP1P2": 1.224, "Leishmania in macrophages": -23.19, "T. brucei": -67.33}
{"structure": "CC(C)c1noc(CCC(=O)Nc2cc(C(F)(F)F)c[nH]c2=O)n1", "ClpP1P2": -9.506, "Leishmania in macrophages": 2.197, "T. brucei": -11.55}
{"structure": "CC(NC(=O)Nc1cccnc1N1CCOCC1)c1ccncc1", "stereo": "stereo unspecified", "Toxoplasma": 2.144, "ClpP1P2": 8.803, "Leishmania in macrophages": -2.77, "T. brucei": -42.01}
{"structure": "C[S+]([O-])c1nncn1CCc1ccccc1", "stereo": "stereo unspecified", "Toxoplasma": -4.567, "ClpP1P2": -4.691, "Leishmania in macrophages": -18.06, "T. brucei": -29.68}
{"structure": "Cc1cccnc1NC(=O)c1ccc(F)c(S(=O)(=O)N2CCC2)c1", "Toxoplasma": 1.721, "ClpP1P2": 7.269, "Leishmania in macrophages": 15.36, "T. brucei": 6.683}
{"structure": "Cn1cc(-c2c(C#N)c(N)nc3c2CCc2[nH]ccc2-3)cn1", "Toxoplasma": 5.861, "ClpP1P2": -949.1, "Leishmania in macrophages": -12.83, "T. brucei": 27.56}
{"structure": "Cc1nnc(CN(Cc2ccccc2C(F)(F)F)C2CC2)o1", "Toxoplasma": -0.649, "ClpP1P2": 0.6025, "Leishmania in macrophages": 8.099, "T. brucei": 10.27}
{"structure": "[H][C@@]12CCN(Cc3ccco3)CC[C@]1([H])[C@H](COC)CN(C)C2=O", "Toxoplasma": -2.535, "Leishmania in macrophages": 17.9, "T. brucei": -61.88}
{"structure": "N#CCCn1nc(C(F)(F)F)c2c1CCCC2", "Toxoplasma": 5.016, "ClpP1P2": 0.7827, "Leishmania in macrophages": 26.44, "T. brucei": -0.07553}
{"structure": "C[C@@H]1CN(C(=O)c2ccc[nH]2)C[C@]12CCN(CCN1CCCC1)C2=O.O=C(O)C(F)(F)F", "Toxoplasma": 10.36, "Leishmania in macrophages": 8.859, "T. brucei": -43.46}
{"structure": "Cc1ccc(C(=O)NCC2Cc3ccccc3O2)cc1S(C)(=O)=O", "stereo": "stereo unspecified", "Toxoplasma": -5.596, "ClpP1P2": 0.2221, "Leishmania in macrophages": 22.4, "T. brucei": -39.55}
{"structure": "Cc1cnccc1CN1CC[C@@](C)(O)[C@H](Oc2ccccc2)C1", "Toxoplasma": 29.66, "ClpP1P2": -4.306, "Leishmania in macrophages": 17.48, "T. brucei": -19.56}

Once more, the final 3:

| structure | Toxoplasma | ClpP1P2 | Leishmania in macrophages | T. brucei |
|---|---|---|---|---|
| `C[C@@H]1CN(C(=O)c2ccc[nH]2)C[C@]12CCN(CCN1CCCC1)C2=O.O=C(O)C(F)(F)F` | 10.36 | - | 8.859 | -43.46 |
| `Cc1ccc(C(=O)NCC2Cc3ccccc3O2)cc1S(C)(=O)=O` (stereo unspecified) | -5.596 | 0.2221 | 22.4 | -39.55 |
| `Cc1cnccc1CN1CC[C@@](C)(O)[C@H](Oc2ccccc2)C1` | 29.66 | -4.306 | 17.48 | -19.56 |

Data taken from ChEMBL document CHEMBL3988442, “University of Dundee, Small-Polar-MMV Screening Library” (2021).